This data set relates to hippocampal gene expression. In words: Hippocampal gene expression by DNA microarray and IPA network analysis. It counts as in vivo, mouse. The note with it: ME+ASX group. The source says:
All the mice used in this experiment were divided so that the weight was equalized at the preliminary breeding end point. These were divided into three groups of placebo+rest (CON), placebo+low intensity exercise (ME), and low intensity exercise+0.5% ASX uptake (ME+ASX) (each n=8). Mice were bred each one per a cage.
The brain was removed two days after 4 weeks training and ASX uptake. The hippocampus was fractionated from the collected brain (Hirano M, Rakwal R, Shibato J, Sawa H, Nagashima K, Ogawa Y, Yoshida Y, Iwahashi H, Niki E, Masuo Y. Proteomics- and transcriptomics-based screening of differentially expressed proteins and genes in brain of Wig rat: a model for attention deficit hyperactivity disorder (ADHD) research. J Proteome Res 7: 2471-2489, 2008). The hippocampus was immediately frozen with liquid nitrogen and stored in a freezer at −80° C.
In this experiment, SurePrint G3 mouse 8×60K whole genome DNA microarray chip (G4858A, Agilent Technologies, Palo Alto, Calif., USA) was used for RNA analysis. In the following, the procedure is shown.
1) Mixing of RNA: RNA extracted from hippocampus samples of each individual (n=8, 250 ng/1 individual) was mixed for each group.
2) Labeling of RNA: RNA extracted from each sample is labeled with Cy3 and Cy5 dyes (Two-color labeling) using an Agilent Low RNA Input Fluorescent Linear Amplification Kit (Agilent Technologies).
3) Hybridization: Samples of fluorescently labeled control group (CON group) and experiment group (ME group, ME+ASX group) are assayed on the same Microarray chip and hybridized with a 60 base pair probe on the slide glass. Conditions for hybridization and washing were in accordance with the conditions of the manufacturer. 4) Scan: Hybridized Microarray chip was scanned with Agilent Microarray scanner G2505C. 5) Processing of scan data: In order to clarify the change in gene expression in the experiment group using the control group as a control, slide images were processed using Agilent Feature Extraction software. In the program at this time, the color intensity of Cy3 and Cy5 of all the probes was measured. 6) Standardization of data: For standardization of data, LOWESS (locally weighted linear regression) was used, and logarithmic and logarithmic error rates standardized from Cy3 and Cy5 signals were calculated. The level of significance at this time was set at 1%. 7) Data acquisition: A list of genes that came out up to 6) was prepared using GeneSpring version GX 10 (Agilent). The gene list was created by extracting only genes whose gene expression was enhanced by 1.5-fold or more and genes suppressed to 0.75-fold or less with both intensities using the control group as a control. […]

As to `CC1=C(/C=C/C(C)=C/C=C/C(C)=C/C=C/C=C(C)/C=C/C=C(C)/C=C/C2=C(C)C(=O)[C@@H](O)CC2(C)C)C(C)(C)C[C@H](O)C1=O` [ASX, astaxanthin], the “number of genes enhanced by 1.5-fold or more as compared with the CON group (microarray, 55,681 genes)” value is 3,891 and the “number of genes suppressed to 0.75-fold or less as compared with the CON group (microarray)” value was found to be 411. Also, under “not in ME”, the “number of hippocampal genes (IPA) suppressed only by ME+ASX” value stood at 14 and the “number of hippocampal genes (IPA) whose expression was enhanced only by ME+ASX” value is 108.

The record behind these values is patent US11116732B2, “Carotenoid-containing cognitive function improving composition for use in exercise therapy for improving cognitive function” (ASTAREAL CO., LTD., priority 2016, dated 2021).
